Reference: patent US12454507B2, “Compounds having a fungicidal activity, their agronomic compositions and use thereof for the control of phytopathogenic fungi” (ISAGRO S.p.A., priority 2019, dated 2025)
Some of these results come from one statement about several compounds together.

Assays:
Puccinia Recondita = experiment: Preventive fungicidal activity (5 days) against Puccinia recondita on wheat; assay type: in vivo; conditions: dose of 250 ppm
Protocol: Leaves of wheat plants of the […] variety, grown in pots in a conditioned environment at 20° C. and 70% of Relative Humidity (RH), were treated by spraying both sides of the leaves with the compound under examination dispersed in a hydroacetone solution at 20% by volume of acetone. […] After spraying, the plants were kept in a humidity-saturated environment at a temperature ranging from 18 to 24° C. for the incubation period of the fungus (1 day). At the end of this period, the plants were put in a greenhouse with a relative humidity (RH) of 70% and at a temperature of 18-24° C. for 14 days At the end of this period, the external symptoms of the pathogen appeared and it was therefore possible to proceed with the visual evaluation of the intensity of the infection, both on the parts treated directly with the products (T) and on the parts developed during the implementation of the test (NT).

Phakopsora pachyrhizi = experiment: Preventive fungicidal activity (5 days) against Phakopsora pachyrhizi on soya; assay type: in vivo; conditions: 30 ppm

Compound | activity (fungicidal, Puccinia recondita on wheat) (Puccinia Recondita) | control of the pathogen (Phakopsora pachyrhizi)
CCCCCCCC(C)OC(=O)[C@H](C)NC(=O)c1cccc(NC=O)c1O (stereo partly drawn) [Compound 46, (2S)-2-(3-formamide-salicylamide)-propanoate of nonan-2-yl] | greater than 80% | exceeding 80%
CC(C)C(=O)OCOc1c(NC=O)cccc1C(=O)N[C@@H](C)C(=O)O[C@@H](C)C(c1ccc(F)cc1)c1ccc(F)cc1 [Compound 156, (2S)-2-[3-formamide-2-(methoxy-(2-methyl)propanoate)-benzamide] of (2S)-1,1-bis(4-fluorophenyl)propan-2-yl] | greater than 80% | exceeding 80%
C[C@H](NC(=O)c1cccc(NC=O)c1O)C(=O)O[C@@H](C)C(c1ccc(F)cc1)c1ccc(F)cc1 [Compound 165, (2S)-2-(3-formamide-salicylamide) propanoate of (2S)-1,1-bis(4-fluorophenyl) propan-2-yl] | greater than 80% | exceeding 80%
